Reference: the supplement of paper PMC7646827
Where a name gives a salt, the structure may show the parent alone. Repeats are few or missing, and single values can be far off.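 All cells are established human bladder cancer lines, one of them grown from a patient-derived xenograft. Viability was read by a luminescent ATP assay as percent inhibition versus vehicle over a seven-point dilution series; the paper calls scores above 59 very active, 30–59 active, 21–29 semi-active, 9–20 low active and below 9 inactive.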

Tests used:
Assay in all cases: drug sensitivity score DSS3 (score 0-100); higher = more sensitive; extreme values may be limits of the assay
Settings in all cases: culture: 3D, ultra-low attachment; treatment time: 5 days
BC8149 = test system: BC8149
UM-UC-18 = test system: UM-UC-18
UM-UC-1 = test system: UM-UC-1
UM-UC-12 = test system: UM-UC-12
UM-UC-5 = test system: UM-UC-5
TCCSUP = test system: TCCSUP
T-24 = test system: T-24
UM-UC-9 = test system: UM-UC-9
UM-UC-6 = test system: UM-UC-6
SCaBER = test system: SCaBER
UM-UC-17 = test system: UM-UC-17
UM-UC-3 = test system: UM-UC-3
UM-UC-14 = test system: UM-UC-14
UM-UC-15 = test system: UM-UC-15
5637 = test system: 5637
SW780 = test system: SW780
J82 = test system: J82

Compound	drug sensitivity score DSS3 (BC8149)	drug sensitivity score DSS3 (UM-UC-18)	drug sensitivity score DSS3 (UM-UC-1)	drug sensitivity score DSS3 (UM-UC-12)	drug sensitivity score DSS3 (UM-UC-5)	drug sensitivity score DSS3 (TCCSUP)	drug sensitivity score DSS3 (T-24)	drug sensitivity score DSS3 (UM-UC-9)	drug sensitivity score DSS3 (UM-UC-6)	drug sensitivity score DSS3 (SCaBER)	drug sensitivity score DSS3 (UM-UC-17)	drug sensitivity score DSS3 (UM-UC-3)	drug sensitivity score DSS3 (UM-UC-14)	drug sensitivity score DSS3 (UM-UC-15)	drug sensitivity score DSS3 5637	drug sensitivity score DSS3 (SW780)	drug sensitivity score DSS3 (J82)
CC(C)[C@]12O[C@H]1[C@@H]1O[C@]13[C@]1(O[C@H]1C[C@H]1C4=C(CC[C@@]13C)C(=O)OC4)[C@@H]2O [Triptolide (PG490)] (max dose 10000 nM)	64.1	69.6	61.8	47.6	68.5	63.6	56	45.5	62.6	68.5	70.7	55.9	64.2	74	68.2	49.9	66.8
CC(C)(C)c1cc(/C=C(\C#N)C(N)=S)cc(C(C)(C)C)c1O [Tyrphostin AG 879] (max dose 10000 nM)	0	0	0	0	0	0	0	0	0	0	0	0	0	0	0	0	0
N#CC(=C(/N)Sc1ccccc1N)/C(C#N)=C(\N)Sc1ccccc1N [U0126-EtOH] (max dose 10000 nM)	0	4.08e-05	0	0	0	0	0	0	0	0	0	0.283	0	0	0	0	0
O=C(O)CSc1cc(NS(=O)(=O)c2ccc(Br)cc2)c2ccccc2c1O [UMI-77] (max dose 10000 nM)	0	0	0	0	0	0	0	0	0.955	0	0	0	0.159	0	0	0	0
CCCc1cc(C)[nH]c(=O)c1CNC(=O)c1cc(-c2ccc(N3CCN(C(C)C)CC3)nc2)cc2c1cnn2C(C)C [UNC1999] (max dose 10000 nM)	0.029	2.18	14.7	0	0.0129	1.73	0	0	0	0	0	0	1.78	0.137	2.63	0	0
CC(C)(O)CNc1ncc(-c2ccnc(Nc3ccncc3)n2)c(CC2CC2)n1 [VPS34 inhibitor 1 (Compound 19, PIK-III analogue)] (max dose 10000 nM)	1.04	0	2.26	0	0	3.98	0	0	0.27	0	0	0.1	0	1.82	0.0408	0	0
CC(C)[C@](O)(c1ccc2cc(OC(F)F)c(OC(F)F)cc2c1)c1c[nH]nn1 [VT-464] (max dose 10000 nM)	17.7	0	0	0	0	0	0	0	0.12	0	0	3.06	0	6.32	0	0	0
Cc1cc(Nc2cc(N3CCN(C)CC3)nc(Sc3ccc(NC(=O)C4CC4)cc3)n2)n[nH]1 [VX-680 (Tozasertib, MK-0457)] (max dose 10000 nM)	0.966	0.589	16.5	6.25	0	28.1	0	0	10.6	0	0	0.569	6.84	0.734	17.4	0	0
CNCc1ccc(-c2cc(-c3nc(-c4ccc(S(=O)(=O)C(C)C)cc4)cnc3N)on2)cc1 [VX-970] (max dose 10000 nM)	3.64	0	9.7	0	3.13	18.5	0	0	0	0.127	5.02	2.82	4.06	0	9.27	0	0
CCCC(CCC)C(=O)O [Valproic acid sodium salt (Sodium valproate)] (max dose 10000 nM)	14.4	4.18	2.26	3.91	0	14.1	3.48	0	0	10.3	1.03	0.226	3.15	2.2	15.1	0	1.19
